This note sets out measurements from US20190275058A1, “COMPOSITIONS AND METHODS FOR TREATING ADDICTION OR SUBSTANCE USE DISORDERS” (EMBERA NEUROTHERAPEUTICS, INC., priority 2016, published 2019).

Data set [1] can be described thus: Phase I single- and multiple-rising dose study: plasma pharmacokinetics. The settings on record: human, in vivo; for Cmax: n 6; for AUC(0-t): n 6, read-out: AUC0-12. From the text:
Total daily doses were double these amounts on BID dosing days. Primary outcomes were safety and pharmacokinetics of MET, its active metabolite (metyrapol), and OX. Safety measures included vital signs, ECGs an standard safety labs. Cortisol and other HPA axis parameters were monitored closely throughout the study.
They were not seeking to quit smoking. […] Primary outcomes were safety and pharmacokinetics.

Data set [2] is described as follows: Pharmacokinetic interaction between cocaine, metyrapone and oxazepam (plasma concentrations, GCMS). It is filed as in vivo, rat. The conditions noted are these: rats, ip. As for the experimental part: . Thirty minutes following the drug combination or vehicle injection, the rats received intravenous injections of cocaine (0.25 mg/kg/infusion) every 2 minutes for 1 hour. After the final injection of cocaine, blood was collected from the catheter for the analysis of cocaine and its metabolites ecgonine methyl ester and benzoylecgonine. […] All drug concentrations were determined using GCMS procedures. […].

Where [3] appears, read: 270 mg Metyrapone/12 mg Oxazepam, Day 1, mean.
The mark [4] stands for this setting: 270 mg Metyrapone/12 mg Oxazepam, Day 10, mean.
The mark [5] stands for this setting: 540 mg Metyrapone/24 mg Oxazepam, Day 1, mean.
Where [6] appears, read: 540 mg Metyrapone/24 mg Oxazepam, Day 10, mean.
The mark [7] stands for this setting: 720 mg Metyrapone/24 mg Oxazepam, Day 1, mean.
Where [8] appears, read: 720 mg Metyrapone/24 mg Oxazepam, Day 10, mean.

Read-outs that look alike come from different tables or passages of the source.

For `O=C1Nc2ccc(Cl)cc2C(c2ccccc2)=NC1O` (stereo not shown) [oxazepam], the Cmax in data set [1] (setting [3]) is 220 ng/mL; in data set [1] (setting [4]), 349 ng/mL; in data set [1] (setting [5]) it was 486 ng/mL; in data set [1] (setting [6]) it was 607 ng/mL; in data set [1] (setting [7]), 439 ng/mL; in data set [1] (setting [8]) it was 653 ng/mL. The AUC(0-t) in data set [1] (setting [3]) came to 1390 ng·h/mL; in data set [1] (setting [4]), 2330 ng·h/mL; in data set [1] (setting [5]) it was 3210 ng·h/mL; in data set [1] (setting [6]), 4080 ng·h/mL; in data set [1] (setting [7]), 2810 ng·h/mL; in data set [1] (setting [8]), 4540 ng·h/mL. For the same molecule, in data set [2], the “influence on plasma concentrations of each other” value is recorded as “did not influence plasma concentrations of each other”.
